For 21 compounds, T/C and survivor count results are on record in PubChem BioAssay AID256 (DTP/NCI, 2004).

SMILES strings stand for the structures. The list does not hold the whole screen: it gathers tests that were run many times, whatever their T/C, doses with no T/C, and many T/C values between a quarter and a half above the control. Further doses and runs are listed elsewhere. T/C: endpoint of the treated group in % of that of the vehicle group. Some doses have a count of surviving animals in place of a T/C: the source holds a T/C of zero for them, seemingly a mark for toxic or unscored doses. Some doses without a T/C left all or most animals alive at the check, yet need not have been tolerated: the source hardly ever lists a survival T/C far under the control, and the zero likely stands for such cases as well. Survivors were counted at the toxicity check, usually on the fifth day, unless a day is given; later deaths do not show. Schedule codes are those of the source, taken here to give the interval after Q, in days (D) or hours (H), and the number of doses after X. Some entries were tested several times; the results are listed from low to high. For survival time, the PubChem record calls one and a half times the control and up active, and a quarter to a half above the control has no call in these data; cut-offs in other NCI protocols can differ. Some T/C values are followed by the survivors on the day toxicity was checked, most often the fifth; where none is given, no animal had died by that day.

The subject of this experiment is CD2F1 mice, L1210 leukemia ip, survival T/C. The experiment is described as follows: NCI In Vivo Anticancer Drug Screen. Data for tumor model L1210 Leukemia (intraperitoneal) in CD2F1 (CDF1) mice. The note with it: higher T/C = longer survival. A digest of the protocol: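 Vehicle-treated tumor-bearing mice served as controls (C) for compound-treated mice (T). Reported figure is T divided by C.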

The mark [1] stands for this setting: T/C endpoint: mean survival time, dose: 100.0 mg/kg/injection, schedule: Q04DX003 (ip), vehicle: saline with Tween-80.
Where [2] appears, read: T/C endpoint: mean survival time, dose: 400.0 mg/kg/injection, schedule: Q01DX001 (ip), vehicle: saline with Tween-80.
Setting [3] is: T/C endpoint: mean survival time, dose: 300.0 mg/kg/injection, schedule: Q01DX001 (ip), vehicle: saline.
Setting [4] is: T/C endpoint: mean survival time, dose: 200.0 mg/kg/injection, schedule: Q04DX002 (ip), vehicle: saline with Tween-80.
The mark [5] stands for this setting: T/C endpoint: mean survival time, dose: 400.0 mg/kg/injection, schedule: Q04DX003 (ip), vehicle: saline with Tween-80.

Turning to `COC12C(COC(N)=O)C3=C(C(=O)C(C)=C(N4CC4C#N)C3=O)N1CC1NC12` (stereo not drawn), the T/C by setting is: (T/C endpoint: median survival time, dose: 0.75 mg/kg/injection, schedule: Q01DX001 (ip), vehicle: water) 134 % of control; (T/C endpoint: median survival time, dose: 1.5 mg/kg/injection, schedule: Q01DX001 (ip), vehicle: water) 138 % of control. Moreover, the survivor count reads like this: (T/C endpoint: median survival time, dose: 3.0 mg/kg/injection, schedule: Q01DX001 (ip), vehicle: water) 6 of 6; (T/C endpoint: median survival time, dose: 6.0 mg/kg/injection, schedule: Q01DX001 (ip), vehicle: water) 0 of 6; (T/C endpoint: median survival time, dose: 12.0 mg/kg/injection, schedule: Q01DX001 (ip), vehicle: water) 0 of 6.

As for `CSc1ncnc2cn(C3OC(CO)C(O)C3O)nc12` (stereo not drawn), where the note is “T/C endpoint: mean survival time, dose: 400.0 mg/kg/injection, schedule: Q01DX005 (ip), vehicle: water”, the survivor count is 0 of 3.

As to `CN1c2ccccc2N(C)c2ccccc21`, the survivor count is, setting by setting: (T/C endpoint: mean survival time, dose: 200.0 mg/kg/injection, schedule: Q01DX009 (ip), vehicle: saline with Tween-80) 4 of 6; (T/C endpoint: mean survival time, dose: 400.0 mg/kg/injection, schedule: Q01DX009 (ip), vehicle: saline with Tween-80) 3 of 6.

In the case of `Cn1c(=O)c2c(nc(-c3ccccc3)n2O)n(C)c1=O`, the survivor count (T/C endpoint: mean survival time, dose: 200.0 mg/kg/injection, schedule: Q01DX005 (ip), vehicle: other) was 2 of 6.

Turning to `CCC[CH2][Pb]([CH2]CCC)([CH2]CCC)[O]C(C)=O`, the survivor count was 0 of 6 (T/C endpoint: mean survival time, dose: 10.0 mg/kg/injection, schedule: Q01DX001 (ip), vehicle: other); 2 of 6 (T/C endpoint: mean survival time, dose: 20.0 mg/kg/injection, schedule: Q01DX001 (ip), vehicle: other); 1 of 6 (T/C endpoint: mean survival time, dose: 40.0 mg/kg/injection, schedule: Q01DX001 (ip), vehicle: other); 3 of 3 under setting [1].

For the compound `NCCCNCCCCNC(=O)C(O)NC(=O)CC(O)CCCCN=C(N)N` (stereo not drawn), the T/C was 200, 215, 219 % of control (T/C endpoint: median survival time, dose: 25.0 mg/kg/injection, schedule: Q01DX009 (ip), vehicle: saline, evaluated on day 30); 171 % of control [5 of 6 alive] (T/C endpoint: median survival time, dose: 25.0 mg/kg/injection, schedule: Q01DX009 (ip), vehicle: saline, evaluated on day 40); 200, 224, 231 % of control (T/C endpoint: median survival time, dose: 50.0 mg/kg/injection, schedule: Q01DX009 (ip), vehicle: saline, evaluated on day 30); 189 % of control (T/C endpoint: median survival time, dose: 50.0 mg/kg/injection, schedule: Q01DX009 (ip), vehicle: saline, evaluated on day 40).

Regarding `O=[N+]([O-])c1cc(Cl)c(Cl)cc1[N+](=O)[O-]`, the survivor count under setting [2] was 0 of 3.

On to `CC1CCC(NC(=O)NCCF)CC1` (stereo not drawn), for which, for the setting “T/C endpoint: mean survival time, dose: 300.0 mg/kg/injection, schedule: Q01DX001 (ip), vehicle: other”, the survivor count is on record as 0 of 6.

For `CCC1(O)CC2CN(CCc3c([nH]c4ccccc34)C(C(=O)OC)(c3cc4c(cc3OC)N(C)C3C(O)(C(=O)NCCSSCCNC(=O)C5(O)C(O)C6(CC)C=CCN7CCC8(c9cc(C%10(C(=O)OC)CC%11CN(CCc%12c%10[nH]c%10ccccc%12%10)CC(O)(CC)C%11)c(OC)cc9N(C)C58)C76)C(O)C5(CC)C=CCN6CCC43C65)C2)C1` (stereo not drawn), the T/C by setting is: (T/C endpoint: median survival time, dose: 0.38 mg/kg/injection, schedule: Q01DX009 (ip), vehicle: suspension in saline) 127 and 135 % of control; (T/C endpoint: median survival time, dose: 0.64 mg/kg/injection, schedule: Q01DX009 (ip), vehicle: suspension in saline) 139 [5 of 6 alive] and 149 % of control. Also, the survivor count by setting is: (T/C endpoint: median survival time, dose: 1.08 mg/kg/injection, schedule: Q01DX009 (ip), vehicle: suspension in saline) 2 of 6; (T/C endpoint: median survival time, dose: 1.8 mg/kg/injection, schedule: Q01DX009 (ip), vehicle: suspension in saline) 2 of 6 and 5 of 6; (T/C endpoint: median survival time, dose: 3.0 mg/kg/injection, schedule: Q01DX009 (ip), vehicle: suspension in saline) 1 of 6 and 1 of 4.

In the case of `CCCOP(=O)(N1CC1(C)C)N1CC1(C)C` (stereo not drawn), the T/C was 126 % of control (T/C endpoint: mean survival time, dose: 25.0 mg/kg/injection, schedule: Q04DX003 (ip), vehicle: saline) and 148 % of control (T/C endpoint: mean survival time, dose: 50.0 mg/kg/injection, schedule: Q01DX009 (ip), vehicle: saline). The survivor count was 3 of 6 and 6 of 6 (T/C endpoint: mean survival time, dose: 200.0 mg/kg/injection, schedule: Q01DX009 (ip), vehicle: saline); 3 of 6 (T/C endpoint: mean survival time, dose: 200.0 mg/kg/injection, schedule: Q04DX003 (ip), vehicle: saline).

Regarding `O=C1NC2(CCCCC2)C(=O)N1CCN(CCCl)CCCl`, the T/C (T/C endpoint: median survival time, dose: 4.0 mg/kg/injection, schedule: Q01DX009 (ip), vehicle: Klucel (hydroxypropylcellulose) (HPC), evaluated on day 45) was 143 % of control; the T/C (T/C endpoint: median survival time, dose: 4.0 mg/kg/injection, schedule: Q01DX009 (ip), vehicle: Klucel (hydroxypropylcellulose) (HPC), evaluated on day 60) is 134 % of control; the T/C (T/C endpoint: median survival time, dose: 6.0 mg/kg/injection, schedule: Q01DX009 (ip), vehicle: Klucel (hydroxypropylcellulose) (HPC)) was 140 % of control; the T/C (T/C endpoint: median survival time, dose: 32.0 mg/kg/injection, schedule: Q01DX009 (ip), vehicle: Klucel (hydroxypropylcellulose) (HPC)) is 142 % of control; the T/C (T/C endpoint: median survival time, dose: 64.0 mg/kg/injection, schedule: Q04DX003 (ip), vehicle: Klucel (hydroxypropylcellulose) (HPC)) was 144 % of control; the T/C (T/C endpoint: median survival time, dose: 128.0 mg/kg/injection, schedule: Q01DX001 (ip), vehicle: Klucel (hydroxypropylcellulose) (HPC)) is 126 % of control. Further, the survivor count is 6 of 10 (T/C endpoint: median survival time, dose: 16.0 mg/kg/injection, schedule: Q03HX016 (ip), vehicle: Klucel (hydroxypropylcellulose) (HPC)) and 3 of 10 (T/C endpoint: median survival time, dose: 32.0 mg/kg/injection, schedule: Q03HX008 (ip), vehicle: Klucel (hydroxypropylcellulose) (HPC)).

For the compound `C1CCC(CCNCCC2CCCCC2)CC1`, the survivor count reads like this: (T/C endpoint: mean survival time, dose: 75.0 mg/kg/injection, schedule: Q01DX001 (ip), vehicle: saline) 3 of 6; (T/C endpoint: mean survival time, dose: 150.0 mg/kg/injection, schedule: Q01DX001 (ip), vehicle: saline) 2 of 6; under setting [3], 0 of 6.

For the compound `C=CCN1C(=O)C=CC1=O`, under setting [4], the survivor count was 3 of 3.

Take `Cc1ccc(C(=O)/C=C/c2ccccc2)cc1`: for the setting “T/C endpoint: mean survival time, dose: 400.0 mg/kg/injection, schedule: Q01DX009 (ip), vehicle: Klucel (hydroxypropylcellulose) (HPC)”, the survivor count was 5 of 6.

Regarding `O=Cc1cc(Cl)cc(Cl)c1O`, the survivor count under setting [5] is 5 of 6.

On to `CC[C@@]1(OC(=O)C(N)CCCCN)C(=O)OCc2c1cc1n(c2=O)Cc2cc3ccccc3nc2-1` (stereo partly drawn), for which the T/C is, setting by setting: (T/C endpoint: median survival time, dose: 7.29 mg/kg/injection, schedule: Q04DX002 (ip), vehicle: water) 125 % of control; (T/C endpoint: median survival time, dose: 14.58 mg/kg/injection, schedule: Q04DX002 (ip), vehicle: water) 144 % of control. The survivor count is 1 of 6 and 3 of 6 (T/C endpoint: median survival time, dose: 43.75 mg/kg/injection, schedule: Q04HX004 (iv), vehicle: water); 0 of 6 and 1 of 6 (T/C endpoint: median survival time, dose: 58.33 mg/kg/injection, schedule: Q04HX004 (iv), vehicle: water).

Turning to `OCC1OC(n2cnc3cc(Cl)c(Cl)cc32)C(O)C1O` (stereo not drawn), the T/C by setting is: (T/C endpoint: median survival time, dose: 200.0 mg/kg/injection, schedule: Q01DX009 (ip), vehicle: saline with Tween-80, evaluated on day 25) 148 % of control [5 of 6 alive]; (T/C endpoint: median survival time, dose: 200.0 mg/kg/injection, schedule: Q01DX009 (ip), vehicle: saline with Tween-80, evaluated on day 30) 128 % of control [5 of 6 alive]. Besides, the survivor count by setting is: (T/C endpoint: median survival time, dose: 400.0 mg/kg/injection, schedule: Q01DX009 (ip), vehicle: saline with Tween-80) 0 of 6, 1 of 6, 2 of 6; (T/C endpoint: median survival time, dose: 800.0 mg/kg/injection, schedule: Q01DX009 (ip), vehicle: saline with Tween-80) 0 of 6.

For `CCCC(CN(C)C)C(=O)c1ccccc1` (stereo not drawn), the survivor count by setting is: under setting [4], 1 of 3; (T/C endpoint: mean survival time, dose: 400.0 mg/kg/injection, schedule: Q04DX002 (ip), vehicle: saline with Tween-80) 0 of 3.

Consider `COc1ccc(C(=O)/C=C/c2ccc(N(C)C)cc2)cc1`, for which the survivor count under setting [3] is given as 6 of 6.

With `COC1OC2COC(c3ccccc3)OC2/C(=N/O)C1[n+]1ccccc1` (stereo not drawn), the survivor count is on record as 0 of 6 (T/C endpoint: mean survival time, dose: 200.0 mg/kg/injection, schedule: Q01DX001 (ip), vehicle: saline with Tween-80) and 0 of 6 under setting [2].

Consider `O=S(=O)(O)SCCN1CCCC1`, for which the survivor count under setting [1] is listed as 5 of 6; the survivor count (T/C endpoint: mean survival time, dose: 200.0 mg/kg/injection, schedule: Q04DX003 (ip), vehicle: saline with Tween-80) was 2 of 6; the survivor count under setting [5] is given as 0 of 6.
